## Library screening results

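Viability assay of Plasmodium falciparum sporozoites; the read-out is not stated. The concentration is filed as 10 mM, unlikely as a test dose, so the dose is not known. Higher reads as lower viability (inferred: compounds with an IC50 in retests scored well above the rest). Strong results were mostly tested again. Size under these conditions: about 34,000 compounds, about 280 of them at 50% or above in at least one test.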

The filed quantity is “Percent Effect” (%). The record does not define 0% and 100%; most values in the screen are far below 50% and negative numbers occur (in some assays of this library far below -100). This is an unselected part of the compounds tested. Two or more numbers in one place are separate tests of the same structure; such repeats can differ widely.

| compound | effect |
|---|---|
| `Cc1cc(CN2CCN(c3ccc4nncn4n3)CC2)no1` | -0.06506 |
| `COc1ccccc1CC(=O)N1CCCC1Cn1nc(C)cc1C` (configuration not stated) | 0.9015 |
| `CSCCC(O)C(=O)N1CCN(Cc2cccc(Cl)c2)CC1` (configuration not stated) | -2.23 |
| `CCc1nnc2n1CC(CNCc1nc(C)c(C)o1)CC2` (configuration not stated) | -11.08 |
| `CCc1nccc(CN2CCCC(c3nn(C)c(=O)n3CC)C2)n1` (configuration not stated) | 9.689 |
| `Cc1c(C(=O)N(C)CC(F)(F)F)nnn1-c1ccc(F)cc1` | -0.5812 |
| `Cc1cccc(N2CC3(CCN(C(=O)NC(C)C)C3)CC2=O)c1` (configuration not stated) | -17.03 |
| `COCCN1C(=O)CCC12CCN(C(=O)CNC(C)=O)CC2` | 2.347 |
| `O=C(Cc1ccccc1)N1CCC(c2nnc(-c3ccccn3)o2)CC1` | 3.927 |
| `CN(C)CCN1C(=O)CCCC12CCCN(C(=O)c1cc[nH]n1)C2.O=C(O)C(F)(F)F` (configuration not stated) | -16.7 |
| `CCc1nc(NS(=O)(=O)c2ccc(C)cc2Cl)no1` | -3.004 |
| `[H][C@]12CC[C@]([H])(CN(Cc3cccnc3N)C1)N(Cc1c(C)noc1C)C2=O` | 4.927 |
| `COC(C)c1noc(CN(C)c2ncc(Br)cn2)n1` (configuration not stated) | 3.614 |
| `CC(=O)N1CCC(NC(=O)c2cc(Cl)ccc2-n2cnnn2)CC1` | -6.509 |
| `O=C(O)C(F)(F)F.[H][C@]12CCN(c3ccc(C)nn3)C[C@@]1([H])CN(Cc1cccnc1OC)C2` | 13.27 |
| `O=C(O)C(F)(F)F.[H][C@@]12C[C@H](C)O[C@@]1([H])CCN(S(=O)(=O)c1c(C)nn(C)c1C)C2` | 1.839 |
| `O=C(c1ccc[nH]1)N1CCCn2c(CN3CCCCC3)nnc2C1` | 8.023 |
| `CCN(CC)C(=O)c1nc2c(s1)CCN(C(=O)Nc1ccccc1)CC2` | -20.83 & -34.74 & -6.066 |
| `CCOc1cc(C)nc(N2CCN(C(=O)c3ccc[nH]3)CC2)n1` | 0.7519 |
| `COc1ccncc1NC(=O)c1[nH]nc(C(C)C)c1Br` | 41.3 & 28.4 |
| `O=C(O)C(F)(F)F.O=C1Nc2ccccc2C12CCN(Cc1nccs1)CC2` | 4.641 |
| `CC(=O)N1CC(Cc2nccc3ccn(C)c23)C1` | -32.75 & -26.66 & -7.958 |
| `CN(C)CCN(C)C(=O)Cn1cccc2cc(-c3ccc(F)cc3)nc1-2` | -2.747 |
| `CCn1nc(C)c(CCn2ccnc2-c2cc3n(n2)CCCNC3)c1C` | 1.073 |
| `N#Cc1cc(S(N)(=O)=O)ccc1NC1CCc2c(F)cccc21` (configuration not stated) | 10.06 |
| `CCc1nc(CC(=O)NCC(Cc2ccc(F)cc2)C(N)=O)cs1` (configuration not stated) | -5.299 |
| `CN1CC(=O)N(c2ccccc2)CC12CCN(CC1CC1)C2.O=C(O)C(F)(F)F.O=C(O)C(F)(F)F` (configuration not stated) | -10.63 |
| `c1cc(C2CCCN2CC2CCCCC2)n[nH]1` (configuration not stated) | 11.86 |
| `Cn1cc(CCC(=O)N2CCCC(n3cncn3)C2)cn1` (configuration not stated) | -0.7887 |
| `CN(C)[C@@H]1CCN(C(=O)Cc2ccc(F)cc2)[C@H]1Cc1ccncc1.O=C(O)C(F)(F)F.O=C(O)C(F)(F)F` | -10.91 |
| `O=C(O)[C@@H]1CN(C(=O)CSCCN2CCCC2)C[C@H]1c1ccccc1` | -7.797 |
| `Cc1cnn(CC2CCCN2C(=O)Cc2c(C)noc2Cl)c1` (configuration not stated) | 8.684 |
| `[H][C@@]12CN(CCO)C[C@]1([H])C(=O)N(Cc1ccc(OC)cc1)C2` | 3.764 |
| `O=C(NCCNc1ncccn1)N(Cc1ccc(F)cc1F)C1CC1` | 1.069 |
| `CN1C(=O)C2(CCN(CC3CC3)CC2)c2ccccc21.O=C(O)C(F)(F)F` | -7.314 |
| `N#Cc1c(SCCN2CCCCCC2)sc2c(O)cc(O)nc12` | 9.282 |
| `CNC(=O)C1(CCCc2ccncc2)CCN1.O=C(O)C(F)(F)F` (configuration not stated) | 11.26 |
| `Fc1cccc(-c2nc(CN3CCCC3Cn3cccn3)co2)c1` (configuration not stated) | 3.787 |
| `Cc1cccn2cc(CN3CCC(N4CCN(C)C4=O)CC3)nc12` | -2.336 |
| `Cc1cc(C(=O)NCc2ccc(N3CCN(C)CC3)nc2)c(C)s1` | 0.5224 |
| `O=C(O)C(F)(F)F.O=C(O)C(F)(F)F.[H][C@]12C[C@@H](Cn3cncn3)N(c3nccs3)[C@@]1([H])CCN(C(C)C)C2` | 1.733 |
| `O=C(O)C(F)(F)F.[H][C@@]12CN(Cc3ccccn3)C[C@]1([H])CN(c1cc(OC)ncn1)C2` | -12.26 |
| `CC1c2ncc(Cn3cccn3)n2CCN1Cc1cccnc1.O=C(O)C(F)(F)F.O=C(O)C(F)(F)F` (configuration not stated) | 0.2632 |
| `O=C(O)C(F)(F)F.O=C(c1ccccc1)N1CCCn2c(CN3CCCCC3)nnc2C1` | 1.649 |
| `O=C(CN1C=Nc2ccccc2S1(=O)=O)NCCCc1ccccc1` | 5.476 |
| `CC(C)Nc1ncnc2c1CCN(C(=O)[C@H]1CCCO1)CC2` | 12.64 |
| `CN(Cc1ncc[nH]1)CC(c1cccs1)N1CCOCC1` (configuration not stated) | 7.937 |
| `Cc1nc(CN2CCN(c3ccc4nncn4n3)C(C)C2)oc1C` (configuration not stated) | 2.798 |
| `O=C(NCCCO)NCCc1cc(F)ccc1F` | -23.04 |
| `Cn1cc(C(=O)Nc2cc(F)ccc2OCC2CCCO2)ccc1=O` (configuration not stated) | 7.262 |
| `O=C(Cc1cccs1)N1CCC(O)(CN2CCc3ccccc3C2)C1` (configuration not stated) | 8.87 |
| `N#Cc1ccc(OCC(O)CN2CCC(Cn3cccn3)CC2)cc1` (configuration not stated) | 10.94 |
| `CNc1nc2c(s1)C(c1cccc(F)c1F)CC(=O)N2` (configuration not stated) | 8.455 |
| `Cc1noc(CN(Cc2ccc3c(c2)OCO3)C2CCCC2)n1` | -26.97 & 41.76 & 40.95 |
| `Cc1nc(CN2CCC3(CCN(Cc4cnn(C)c4)C3)C2=O)cs1` (configuration not stated) | -1.18 |
| `CN(C)C(=O)C1(C)CN(Cc2cn(C)c3ccc(F)cc23)CCO1` (configuration not stated) | 7.673 |
| `CCn1c(CN2CCN(CCOC)CC2)nc2c(F)cccc21` | 5.528 |
| `[H][C@]12CCN(C(=O)c3cnoc3C)[C@@]1([H])CCC(=O)N2CC1CC1` | -20.28 |
| `Cc1cn(-c2ccccc2)nc1NS(=O)(=O)c1cccc(C(=O)O)c1` | -7.438 |
| `COCC(=O)N1CCC(c2noc3nc(C)cc(C(F)(F)F)c23)CC1` | 6.043 |
| `CSC(C)C(=O)N1CCCN(Cc2cscn2)CC1` (configuration not stated) | 2.968 |
| `CS(=O)(=O)NCc1nnc2n1CCN(Cc1ccccn1)C2` | -9.88 |
| `O=C(CC1CN(Cc2ccccc2)CCO1)Nc1ccccc1F` (configuration not stated) | -63.07 & -47.35 & 37.43 |
| `COc1ccc(C)cc1S(=O)(=O)NCCC(O)c1ccccc1` (configuration not stated) | 8.487 |
| `CNCc1cc(F)ccc1Oc1ccc(F)cc1` | 6.986 |
| `Cc1cc(C[C@@H]2CCC[C@H]2NCc2cc(F)ccc2F)on1.O=C(O)CC(O)(CC(=O)O)C(=O)O` | 0.3347 |
| `O=C(c1cccc2cccnc12)N1CC[C@@]2(CCCO2)[C@@H](O)C1` | 15.74 |
| `CCCN1CCN(C(=O)c2ccc(Cn3cc(Br)cn3)cc2)CC1` | -6.529 |
| `O=C(O)C(F)(F)F.O=C(O)C(F)(F)F.[H][C@@]12COC[C@]1(COc1cccnc1)CN(c1cc(OC)ncn1)C2` | -24 |
| `Cc1nc(-c2ccccc2)ccc1C(=O)N1CCn2c(C)nnc2C1` | -2.781 |
| `Cc1csc(C(Cc2ccsc2)NC(=O)CN(C)Cc2cccnc2)n1.Cl` (configuration not stated) | 11.6 |
| `CC(=O)N(C)C(c1cccc(F)c1)c1ccccn1` (configuration not stated) | 10.13 |
| `CN(C)CC1CN(Cc2ccsc2)Cc2nccn2C1.O=C(O)C(F)(F)F.O=C(O)C(F)(F)F` (configuration not stated) | -9.508 |
| `[H][C@@]12CCN(C(=O)c3cscn3)[C@]1([H])CN(S(C)(=O)=O)C2` | 8.319 |
| `CC(C)c1nc(CN(C)C2CCN(CCNS(C)(=O)=O)C2)no1` (configuration not stated) | 2.133 |
| `Cc1ccccc1C1(C(=O)NCCN2CCCC2)CCOCC1` | 7.68 |
| `Cc1nc2cc(O)nn2c(C)c1CCC(=O)NCCc1nccn1C` | -0.3253 |
| `Cc1nc(C(C)C)sc1C(=O)N(C)Cc1cnn(C)c1` | 0.4571 |
| `[H][C@@]12CNC[C@]1([H])N(C(=O)c1ccoc1)CCO2` | -1.226 |
| `[H][C@@]12CN(c3ccc(C)nn3)C[C@@H](C(=O)NCc3ccco3)[C@]1([H])CCO2` | 1.852 |
| `CC(C)N(C)S(=O)(=O)c1ccc2c(c1)CCN(C(=O)c1cccnn1)C2` | 9.848 |
| `COc1ccc(OC)c(C(O)CNC(=O)Nc2ccc(F)cc2F)c1` (configuration not stated) | 7.423 |
| `[H][C@@]12CCN(C(=O)c3ccnnc3)C[C@@]1([H])O[C@H](c1nc(C)cs1)C2` | -8.827 |
| `Cc1nn(CCO)c(C)c1CNCc1cccnc1N(C)C` | 10.82 |

From ChEMBL document CHEMBL3988442, “University of Dundee, Small-Polar-MMV Screening Library” (2021).